Assay results published in patent publication US10519099B2, “Cystobactamides” (priority 2014, dated 2019).
≈ marks a conversion by molar mass, not a printed value.

Test system: Staphylococcus aureus ATCC29213
Test: MIC microdilution, Staphylococcus aureus ATCC29213
Type: cell-based
Conditions: larger panel
Method: Indicator strains used in susceptibility assays were either part of our strain collection or purchased from the German Collection of Microorgansims and Cell Cultures (DSMZ) or from the American Type Culture Collection (ATCC). E. coli strain WT and corresponding E. coli mutants were kindly provided by Prof. Dr. P. Heisig, Pharmaceutical Biology and Microbiology, University of Hamburg. E. coli strains JW0401-1 (WT) and Δtsx were obtained from the CGSC collection.
MIC values were determined in standardized microdilution assays. Overnight cultures were diluted in the appropriate growth medium to achieve an inoculum of 10^4-10^6 cfu/mL. Yeasts were grown in Myc medium (1% phytone peptone, 1% glucose, 50 mM HEPES, pH 7.0), S. pneumonia and Enterococcus spp. in tryptic soy broth (TSB: 1.7% peptone casein, 0.3% peptone soymeal, 0.25% glucose, 0.5% NaCl, 0.25% K2HPO4; pH 7.3); M. smegmatis in Middlebrook 7H9 medium supplemented with 10% Middlebrook ADC enrichment and 2 ml/I glycerol). All other listed bacteria were grown in Müller-Hinton broth (0.2% beef infusion solids, 1.75% casein hydrolysate, 0.15% starch, pH 7.4). […] Growth inhibition was assessed by visual inspection and the MIC was defined as the lowest concentration of compound that inhibited visible growth.

Compound: O=C(O)c1cn(C2CC2)c2cc(N3CCNCC3)c(F)cc2c1=O [CP, Ciprofloxacin, reference compound]
- MIC: 0.05 to 0.1 µg/mL (≈ 0.151 to 0.302 µM)
